According to the supplement of paper PMC3334620:
The full ranking holds about 33,000 sequences; the median of “E-score (-0.5 to 0.5)” is about -0.0034, and the highest 2% start at about 0.25. The list shows a part of the results.

The sequences below were run against T1, Yap3 (UniProt P38749) (assay: PBM E-score (8-mer binding enrichment) (E-score (-0.5 to 0.5)); higher = stronger / more preferred TF binding). Settings: protein concentration: 100 nM; construct: GST-full length.
T1 sequence: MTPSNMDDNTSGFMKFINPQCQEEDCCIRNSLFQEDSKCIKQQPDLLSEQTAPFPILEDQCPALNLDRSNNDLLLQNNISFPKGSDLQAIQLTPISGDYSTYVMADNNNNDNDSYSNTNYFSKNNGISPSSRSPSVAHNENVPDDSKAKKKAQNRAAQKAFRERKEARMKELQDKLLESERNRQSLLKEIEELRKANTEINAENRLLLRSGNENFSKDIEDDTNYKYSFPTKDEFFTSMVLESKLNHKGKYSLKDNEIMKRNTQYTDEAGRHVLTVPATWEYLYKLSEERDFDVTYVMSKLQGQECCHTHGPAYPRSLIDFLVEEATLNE
How it was run: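 Using PURExpress in vitro transcription/translation, GST-tagged yeast transcription factors were made in full-length or DNA-binding-domain form. These were applied at about 100-200 nM to double-stranded universal all-10-mer Agilent arrays, and bound protein was detected with fluorescent anti-GST. Scans were normalised with masliner before the Universal PBM Analysis Suite assigned E-scores to ungapped eight-base words pooled with their reverse complements.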

Compared with GGATAAAA, CCACAAGA is lower in “PBM E-score” value: 0.194 for the first, 0.0149 for the second.

Compared with CACGACAC, CCGGCGGC is lower in “PBM E-score” value: 0.00465 for the first, -0.308 for the second.

First: AGGTGCGC
Second: ATGTTGTC
The “PBM E-score” value of the first is lower: -0.166 for the first, 0.0739 for the second.

Going from CGAACCCC to CCATCAAA, the “PBM E-score” value rises from -0.257 to 0.154.

First: CAGATCAA
Second: GCCAAGCA
The “PBM E-score” value of the first is higher: -0.0848 for the first, -0.097 for the second.

First: ATAGCCCC
Second: CGGTGAAG
The “PBM E-score” value of the first is lower: -0.373 for the first, -0.194 for the second.

Compared with ACGTCAGA, CTGGACTC is lower in “PBM E-score” value: 0.0127 for the first, -0.0662 for the second.

Going from AAGCCTTC to GTATCATA, the “PBM E-score” value rises from -0.0737 to 0.276.

Going from AAGACCCA to AGTGGGAT, the “PBM E-score” value rises from -0.163 to 0.039.

Compared with CCTTCCCA, CCAGAAGC is lower in “PBM E-score” value: 0.0493 for the first, -0.118 for the second.

Compared with TAATCTAA, GATACGGC is lower in “PBM E-score” value: 0.0858 for the first, -0.214 for the second.

Going from CTAATACA to GCACACGC, the “PBM E-score” value falls from 0.25 to -0.0783.

First: AAATAACA
Second: CCTTTCGC
The “PBM E-score” value of the first is higher: 0.192 for the first, 0.0129 for the second.

First: CGTTGGTC
Second: CGGGTACA
The “PBM E-score” value of the first is higher: -0.00712 for the first, -0.0532 for the second.

First: CGCCCGCG
Second: CACCGTAG
The “PBM E-score” value of the first is higher: -0.129 for the first, -0.209 for the second.

Going from ACTCCTAT to AGAAATTG, the “PBM E-score” value rises from 0.12 to 0.266.

First: ACCTTCAA
Second: ACGAGCAC
The “PBM E-score” value of the first is higher: -0.0244 for the first, -0.027 for the second.

Going from CAAGTCGC to CCATCTCA, the “PBM E-score” value rises from -0.278 to -0.0297.

First: AATTTTAG
Second: AGTGCGGC
The “PBM E-score” value of the first is higher: 0.107 for the first, -0.165 for the second.

Going from ATACGCTC to CTACTCTC, the “PBM E-score” value falls from 0.127 to -0.0538.

First: GGCCTATA
Second: CCATCGCA
The “PBM E-score” value of the first is lower: -0.205 for the first, -0.0895 for the second.

Going from CATCTGCG to CCAGTGGA, the “PBM E-score” value falls from -0.14 to -0.192.

First: CCGACAAG
Second: ATATGTGA
The “PBM E-score” value of the first is lower: -0.0178 for the first, 0.186 for the second.

Compared with CCCTCTCC, AGTTGAAA is higher in “PBM E-score” value: -0.411 for the first, -0.0127 for the second.

Going from CGTTTTGA to CCAAGAGA, the “PBM E-score” value falls from 0.0477 to -0.0712.

Going from AGATGCGA to CTCCGGGA, the “PBM E-score” value falls from 0.0511 to -0.255.

Going from AGACTCTC to CCATTAAC, the “PBM E-score” value rises from -0.123 to 0.197.

First: ACATTACT
Second: GAGTAATA
The “PBM E-score” value of the first is lower: 0.213 for the first, 0.273 for the second.

Going from AAGAAGCC to CGAGATTA, the “PBM E-score” value rises from 0.0666 to 0.21.

First: TCGTGGAA
Second: AGGTTCAA
The “PBM E-score” value of the first is higher: 0.245 for the first, 0.063 for the second.

Compared with ATAGTAGG, CTTCACAC is higher in “PBM E-score” value: -0.0359 for the first, 0.105 for the second.

First: GTTGAAAC
Second: TGGCACAA
The “PBM E-score” value of the first is higher: 0.115 for the first, -0.046 for the second.

Compared with ATAACTGA, CTGTGCGC is lower in “PBM E-score” value: 0.181 for the first, -0.102 for the second.

First: TACCTAAA
Second: GGGCGGAC
The “PBM E-score” value of the first is higher: 0.109 for the first, -0.335 for the second.

Going from ACGCTGAA to CACTTGTC, the “PBM E-score” value falls from -0.00885 to -0.0142.

Going from GGGCTTTA to CTCGCTGC, the “PBM E-score” value rises from -0.28 to -0.0528.

Going from AGTCCCGA to AAGACCGT, the “PBM E-score” value rises from -0.283 to -0.117.

Going from GTCCAACA to CTTATGGC, the “PBM E-score” value falls from 0.0985 to -0.0005.

Compared with CTAGCCGA, GCGCCTCC is lower in “PBM E-score” value: -0.0106 for the first, -0.162 for the second.

First: TAACTCCA
Second: AGTTAGGC
The “PBM E-score” value of the first is lower: -0.104 for the first, 0.0337 for the second.

Going from AACGTCAT to ACGTCCGG, the “PBM E-score” value falls from 0.0348 to -0.167.

First: AGCATCAA
Second: GCGGCACA
The “PBM E-score” value of the first is higher: 0.125 for the first, -0.0765 for the second.

First: GACCCGGC
Second: ACCTCGGA
The “PBM E-score” value of the first is lower: -0.161 for the first, 0.0262 for the second.

Compared with AAGCGAGA, ATTTAACC is higher in “PBM E-score” value: -0.0398 for the first, 0.123 for the second.

Going from GTTTAGCA to AGCAAACG, the “PBM E-score” value falls from 0.035 to -0.07.

First: ATGAGCGA
Second: TCTACAGA
The “PBM E-score” value of the first is higher: 0.0437 for the first, -0.141 for the second.

Going from CACGTTGA to GGTTCGGA, the “PBM E-score” value falls from -0.0984 to -0.237.

Compared with ATTTTCGC, CTGGCACA is lower in “PBM E-score” value: 0.0317 for the first, -0.118 for the second.

Going from ATGGGATG to ACCTAAGG, the “PBM E-score” value falls from -0.013 to -0.116.

First: GTCATCAA
Second: AACTCAAC
The “PBM E-score” value of the first is higher: 0.129 for the first, -0.0139 for the second.

Compared with GCCAGGCC, CAAATGAC is higher in “PBM E-score” value: -0.21 for the first, 0.0524 for the second.

Compared with AATAGCAC, GCGTAGTA is higher in “PBM E-score” value: -0.156 for the first, -0.0045 for the second.

Compared with ACAACAAA, CCTCGGCA is lower in “PBM E-score” value: 0.167 for the first, -0.0132 for the second.

Going from CTCTGGAA to TCCCGGGA, the “PBM E-score” value rises from 0.00245 to 0.0379.

Compared with ACTACTTA, CGCTTCGA is lower in “PBM E-score” value: 0.0306 for the first, 0.00551 for the second.

Compared with CAGACGAA, GGCCAGAA is lower in “PBM E-score” value: 0.229 for the first, 0.00561 for the second.

First: CCGAGATA
Second: CGAGCAAA
The “PBM E-score” value of the first is higher: 0.0737 for the first, -0.0107 for the second.

Going from AAACCGCG to CCACACAC, the “PBM E-score” value falls from 0.202 to 0.0798.

Going from CCCCTAGA to AGAAATCA, the “PBM E-score” value rises from -0.0743 to 0.0967.

Compared with GACGGTCA, GGTCTCGA is higher in “PBM E-score” value: -0.181 for the first, -0.0349 for the second.

First: ACCGAGGC
Second: GGCAGCGA
The “PBM E-score” value of the first is higher: -0.139 for the first, -0.265 for the second.

Compared with GGGATACA, ATGGAAAT is higher in “PBM E-score” value: 0.034 for the first, 0.215 for the second.

Compared with AACGCGCG, CTCCGGAC is lower in “PBM E-score” value: 0.265 for the first, -0.127 for the second.

First: ATAGGGAT
Second: CACTGGAC
The “PBM E-score” value of the first is higher: 0.00571 for the first, -0.0821 for the second.

Going from GCGCCTGA to AAGCACCG, the “PBM E-score” value falls from -0.012 to -0.109.

Going from AGTTCATA to CTTGCTTC, the “PBM E-score” value falls from 0.134 to -0.0336.

Compared with CGACGGAA, GCGAGGAC is lower in “PBM E-score” value: 0.0643 for the first, -0.157 for the second.

First: GTCACAAC
Second: AGCCACGA
The “PBM E-score” value of the first is higher: 0.0143 for the first, -0.204 for the second.

First: AGTGATGG
Second: CACCTGGG
The “PBM E-score” value of the first is higher: 0.018 for the first, -0.178 for the second.

Going from AGGATAAC to ATCGATAC, the “PBM E-score” value rises from 0.0577 to 0.208.

First: AGGCCATA
Second: ACTTAGTG
The “PBM E-score” value of the first is lower: -0.0829 for the first, -0.0604 for the second.

Compared with AACTATGA, GAACGTCC is lower in “PBM E-score” value: 0.145 for the first, -0.0106 for the second.

Compared with TAGAAAAA, ATGGTAAC is higher in “PBM E-score” value: 0.123 for the first, 0.218 for the second.

Compared with CCATCGAC, CCTAGCAG is higher in “PBM E-score” value: -0.17 for the first, -0.139 for the second.

Compared with CTACGCAA, AGTCTTAT is higher in “PBM E-score” value: -0.0364 for the first, 0.146 for the second.

First: AGTTTACG
Second: GTTGGTTA
The “PBM E-score” value of the first is lower: 0.0693 for the first, 0.112 for the second.

Going from AAATGAAC to CATGCTTC, the “PBM E-score” value falls from 0.0881 to -0.024.

Going from CGCGGTCC to CAGCTACG, the “PBM E-score” value rises from -0.309 to -0.271.

Going from GACAGATA to GTCATTAA, the “PBM E-score” value rises from 0.218 to 0.3.

Going from GGGAAATA to CTATCTGC, the “PBM E-score” value falls from 0.0786 to -0.0717.

First: CCCGCAGC
Second: GCCACGTA
The “PBM E-score” value of the first is lower: -0.242 for the first, -0.075 for the second.

First: GATCGCAA
Second: CAACGGCA
The “PBM E-score” value of the first is higher: 0.191 for the first, -0.115 for the second.

First: GGCAGTTA
Second: CTGATTAC
The “PBM E-score” value of the first is lower: 0.00106 for the first, 0.223 for the second.

First: GGATAGTA
Second: GTCACCGA
The “PBM E-score” value of the first is higher: 0.145 for the first, -0.0201 for the second.

Compared with CCGTAGGC, GACAGCCC is lower in “PBM E-score” value: -0.155 for the first, -0.186 for the second.

Compared with ACATGCAC, TATTAGCA is higher in “PBM E-score” value: 0.0283 for the first, 0.252 for the second.
